Data as given in PMC5695791.

Key:
[1] = biological target: T1, endogenous signal peptide peptidase of HEK293 cells (human (endogenous in HEK293)) (UniProt Q8TCT9); assay: co-IP; fluorescent-protein-tagged partner overexpressed in HEK293 cells, normoxia or 48 h hypoxia (1% O2); endogenous SPP precipitated with rabbit anti-SPP and Protein A Sepharose at 4°C, washed with PBS; blot with anti-GFP
T1 sequence: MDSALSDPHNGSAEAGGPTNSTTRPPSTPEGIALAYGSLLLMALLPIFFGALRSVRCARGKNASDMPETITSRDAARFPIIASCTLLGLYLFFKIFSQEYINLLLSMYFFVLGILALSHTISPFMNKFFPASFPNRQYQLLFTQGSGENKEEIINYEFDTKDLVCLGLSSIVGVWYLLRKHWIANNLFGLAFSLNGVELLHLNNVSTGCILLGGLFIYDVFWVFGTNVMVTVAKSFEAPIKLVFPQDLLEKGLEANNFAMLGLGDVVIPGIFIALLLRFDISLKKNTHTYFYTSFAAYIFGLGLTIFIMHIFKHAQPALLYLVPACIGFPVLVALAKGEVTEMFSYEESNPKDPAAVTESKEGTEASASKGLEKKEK

[2] = biological target: T2, HA-tagged signal peptide peptidase, catalytically inactive mutant D219A (UniProt Q8TCT9); assay: co-IP; HA-SPP variant and fluorescent-protein-tagged partner co-expressed in HEK293 cells under normoxia; cell extract (50 mM TEA, 1 mM EDTA, pH 7.4) precipitated with rabbit anti-HA and Protein A Sepharose at 4°C, washed with PBS; blot with anti-GFP; IgG control-antibody gave no signal
T2 sequence: T1 sequence with D219A

Substance	binding [1]	binding [2]
HO-1 deletion variant HO-1-ΔN181 (human) (domain or fragment)	binds	
HO-1 deletion variant HO-1-ΔN262 (isolated anchor) (human) (domain or fragment)	no binding	binds
anchorless HO-1 variant GFP-HO-1-ΔC266 (human) (domain or fragment)		no binding

Where a chain is given by its changes, count along the chain named. Results are given in words; binding and its absence hold for the method and conditions named. In cells and extracts the contact can be indirect. A result given as binding can be weak or reduced; the word gives no strength. For some of these results: Sequences can lack the tags named with a protein.
